The values that follow come from PubChem BioAssay AID1347423 (Functional Genomics Laboratory (NCATS/FGL), 2020).

Hit rate of the full screen: of about 52,000 sequences, about 210 (0.4%) were called active.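 The calls were made as follows: active = gene whose silencing raises cell survival under the drug, median off-target-corrected z-score across its silencing RNAs 2 or more; inactive = the rest.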 Some of the results follow.

The assay is described as follows: Resistance to Poly (ADP-Ribose) Polymerase inhibitor: Gene Identification via Genome-wide siRNA Screen. As to conditions: mouse BRCA2 R2336H ES cells, olaparib, CellTiter-Glo viability; hits give high values. The method, boiled down:
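Mouse BRCA2 R2336H ES cells were reverse-transfected with siRNA (20 nM final), treated at 48 h with 500 nM olaparib, and read by CellTiter-Glo after 72 h. Scores: MAD-based z per siRNA, median per gene, seed off-target correction.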
GGGAAAAAGAGAGUCUAUUTT against Tenc1: the z-score was inactive: -0.115.

Turning to GCUUUGAUCGAUUCUCUCGTT against Syt11, the z-score is inactive: -0.0284.

Take GGUCUAUCUGAAGAACAGUTT against Xpo5: the z-score was inactive: -0.145.

As for GGGAAUUCUCCUUGAGAAUTT against BC012016, the z-score was inactive: -0.308.

In the case of “CCGCUAGAUUUCUCUUACCTT against 1810013B01Rik”, the z-score is inactive: 1.1.

For the sequence GCGUAUCGAAUGAAGAUUCTT against Gtf2a1lf, the z-score was inactive: 1.02.

For the sequence “GGCAGUGGCUUGGAUAAAUTT against 5730457F11Rik”, the z-score was active: 2.83.

For the sequence “GGCUCCUGUAAUGCUAACUTT against 2610041B18Rik”, the z-score was inactive: -1.34.

Take GGAGAAGGCUGCUGAUAUUTT against Phf8: the z-score was inactive: -0.718.

For GGAGGUCUUUUCUAAGUACTT against Pde6c, the z-score is inactive: -0.939.

Regarding GGUGCUUUAUUAGGUAUUCTT against Atp6v1g3, the z-score was inactive: 1.01.

GGAGCUUUUGGACCACUUGTT against Tmod1: the z-score was inactive: -0.402.

In the case of GGUCGUUAUCACCAGGCUATT against Rpl26, the z-score is inactive: -2.94.

In the case of GGUACAAAGUCCAUUCUUGTT against Nalp10, the z-score is inactive: 0.193.

Turning to GGGUUUUGCCUUUGUCUAUTT against Supt4h, the z-score is inactive: -1.91.

Take GGCUAUGCACUACUCAUUGTT against Galk1: the z-score was inactive: -0.389.

Take GGUAAAAUAUGGUCUCUUCTT against AI649392: the z-score is inactive: -0.151.

As for “CCUAGCAUGUUUCUUGCUATT against B830028P19Rik”, the z-score is inactive: 0.963.

As for GGGCUUUGUGCCCAACAUGTT against D10Wsu52e, the z-score was inactive: -1.94.

For the sequence GCAGCUACGUAUACCAUGUTT against Gfm, the z-score was inactive: 1.75.

Consider GGUGCUAUUGUGGAUCAACTT against Zdhhc17, for which the z-score is inactive: 0.212.

GGGAAUUCAUGAUCAAGAUTT against Abca3: the z-score is inactive: -0.106.

In the case of GCAUUGUGAGACUAACGUGTT against Dusp7, the z-score was inactive: 2.39.

GGUUGAAACUGCUCUCAAGTT against Prlpm: the z-score is inactive: -0.193.

In the case of GGAAAGAAAGACUAGUAAATT against Cpne1, the z-score was inactive: -0.782.

CCUCUCACCUCAAACGGAUTT against LOC547431: the z-score was inactive: 0.00167.

As to GCAGGAAGGUCAUAUCUUATT against Olfr324, the z-score is inactive: -0.0828.

For the sequence “GGGCAAGUUACAAGAAAUGTT against 2310075G12Rik”, the z-score is inactive: 2.38.

Take GGUGAUGUUCUAACCCUGCTT against Trex1: the z-score was inactive: 0.738.

As for “GGAACCUAAUUGAAUGGCUTT against 2310016A09Rik”, the z-score was inactive: 0.522.

In the case of GGUCAUGAGAGCAUACUGCTT against Ankrd10, the z-score was inactive: 0.967.

For GGAGGUUUAAAUUUGAUGUTT against Adcy9, the z-score is inactive: 0.93.

For the sequence GGGAAUAGCAAACUUAUCUTT against Nfil3, the z-score was inactive: 0.65.

GGAAGACAAAUGAGUUAUGTT against Sema3b: the z-score is inactive: -1.01.

Take GGAAGAAAAAAUCGAUCUGTT against Myl1: the z-score is inactive: -0.553.

In the case of “GCUAACCACCACAGUAUGATT against 0610027O18Rik”, the z-score was inactive: -1.3.

For GCGUGAAUCCAAAUACAGUTT against MGC67569, the z-score was inactive: -1.37.

As for UGGCUAAACGCACCAAGAATT against Rpl37a, the z-score is inactive: -3.38.

Regarding GGAAAGAUGUGGAAGUAAATT against Rab6ip2, the z-score was inactive: 0.47.

As for GCUUCACCGAGUCAUCAUATT against Mdc1, the z-score was inactive: -1.43.

With GGAUAGAUACUGUACUAAUTT against Surb7, the z-score is inactive: 0.941.

As for GCGAUGUGCAUCGGAAUGCTT against Adprhl1, the z-score is inactive: 0.171.

For the sequence “GGAAUGGAAAUUCAGAGAGTT against 9830123M21Rik”, the z-score was inactive: 0.698.

GGUCAAUACUCGAGUGCCATT against Gstm3: the z-score is inactive: 0.809.

Regarding GGACUAGCAGUAAUAAAAGTT against Zdhhc9, the z-score is inactive: 0.926.

As to CGCAGUCGGUCAAGAACAATT against Snrpd2, the z-score is inactive: -2.7.

As for GGAAAACUCAAAGUGCUGATT against Mpra, the z-score is inactive: 0.225.

As to GUGUCCUGACCAGGGUUCUTT against Gpr31c, the z-score was inactive: -0.537.

As for GGAAAUCUUUAUCUGACAGTT against Cbx3, the z-score is inactive: -0.66.

Regarding GGCAGAGGCAAAAGAACAATT against Mrps5, the z-score was inactive: -0.414.

For GCUACAGCAACAUAACAUGTT against Acvrinp1, the z-score is inactive: 1.42.

Regarding “GGAAGAGAACCAAAACACATT against 6030449J21”, the z-score was inactive: -1.08.

Consider GGAAGUGAGGGAGAACAUCTT against Fchsd1, for which the z-score is inactive: -0.895.

On to GGAUGCUGUAACACUUUAUTT against Bcl6, for which the z-score was inactive: -1.71.

Consider “GCCCAAUAGAAGCUGGAUGTT against 1700018L24Rik”, for which the z-score was inactive: -0.245.

In the case of GCCUCUUAAUGCUUUUGUATT against Sfxn1, the z-score was inactive: -0.528.

For GGCAAGAGACAGAAUGAUATT against Ppargc1a, the z-score was inactive: 1.41.

Consider “GGUAUUAAAGACUACUCCATT against 2900070E19Rik”, for which the z-score is inactive: 1.64.

In the case of “GGAUGCAGCUAGAAUUUAATT against 4932438A13Rik”, the z-score was inactive: 0.495.

“CCGUUUCUAUCGAGUGAAATT against B230218O03”: the z-score is inactive: 0.523.

As to GCUGCCAUUUCGCCAAUCUTT against Mfap4, the z-score was inactive: 0.335.

Turning to GGAAAUGUGGUAAUUCCGATT against Cd44, the z-score is inactive: 0.892.

Consider GGAUGAAGAUCAGAUUCAATT against Metapl1, for which the z-score was inactive: -0.064.

Regarding GGACCUGUUUGAGCAGAGGTT against Eps8l2, the z-score is inactive: -0.292.

On to GGCAUUGACCCUUCUUGGATT against Stam2, for which the z-score was inactive: -1.14.

As to GCUAUGGCCAUUAUUGGAGTT against LOC547343, the z-score is inactive: -0.606.

As for GGACAGUCAAACAGAGAAGTT against Unc84a, the z-score is inactive: -1.73.

As to GGAGUACAUGGUACACGUUTT against Fut8, the z-score is inactive: 0.969.

As for GGCUCAAAACCACACCACUTT against Olfr477, the z-score was inactive: 0.195.

Take GGUACUGCUGUUGUCAAUGTT against Prdx3: the z-score is inactive: 0.0754.

CCAGUGGCCCAUUUUUUGUTT against Slc18a1: the z-score is inactive: 1.48.

Turning to GCACUGAACCAAUUUGCCCTT against Dsg1c, the z-score is inactive: -0.603.

On to GGAGCAGUCCUAAUGAUACTT against Phf6, for which the z-score is inactive: -1.59.

On to GGUGGAGCGAAUCAAGGAGTT against Nedd8, for which the z-score was inactive: -0.792.

Regarding GAUUACUCCACCUAUCUCUTT against BC058638, the z-score was inactive: -1.73.

For GCAUUUGAAUCGACUACAGTT against Vti1b, the z-score is inactive: 0.572.

With GGAUCUGUUACUCUGAUACTT against Pias4, the z-score is inactive: -0.823.

With GGCAAUGUCUUUAAAAUACTT against Txndc8, the z-score was inactive: -0.712.

“CAAGGAAUACACUCAGAACTT against A730008H23”: the z-score is inactive: -0.314.

Regarding GCGAUAUGACAGACUCUUCTT against Axud1, the z-score was inactive: -0.733.

As for “CCAUUCUUGCCUUUGUGCUTT against 1200008O12Rik”, the z-score was inactive: 0.486.

Take CCAAAGGUAUGCAGUAUGATT against Cdh4: the z-score is inactive: 1.07.

Regarding “CCUGAACGCAGCAACAAACTT against 1700049L16Rik”, the z-score is inactive: -0.0682.

Take CCUGACCAAUUGAGCUUCCTT against Rusc1: the z-score was inactive: 0.302.

For the sequence GCAAGUGCGGAAGAAAGGATT against AU041783, the z-score is inactive: -0.269.

As to “CCCUUCAGCACGAUGAAAATT against 4930434E21Rik”, the z-score is inactive: 1.54.

Consider GGUGAUUCUCAUCUAAAUGTT against Mtdh, for which the z-score is inactive: -0.281.

On to GCACAAAUUAAAUGUUAGGTT against Zhx2, for which the z-score was inactive: 0.552.

Take CGGGAGUCGGAGAUUUGAATT against Kcnj12: the z-score was inactive: -0.0398.

With GGAGGAUGGGUGUGAAUCUTT against Pycr2, the z-score was inactive: -1.85.

Consider GCACACCUCUAUCCUUUUGTT against Pcsk9, for which the z-score was inactive: -1.87.

GGAUUCAAGAGAAAAGAACTT against Gltscr2: the z-score was inactive: -1.65.

With GGACAAGUCGAAGAGUGAGTT against Ing1, the z-score is inactive: -1.7.

Regarding GCAUUUCAAUCGCACGUUUTT against Gal3st2, the z-score is inactive: 2.72.

For GGUUUUGUUCAGAUCAGAUTT against Gemin6, the z-score is inactive: 0.639.

GCUAAGACACCGAGAGGAATT against Rassf4: the z-score was inactive: -0.885.

Consider GCUAGAUAUAUUUGCCCACTT against Fin15, for which the z-score was inactive: 1.14.

For GGGAUUUCUUUUUCUAGUUTT against Fgd5, the z-score is inactive: 0.224.

GCGUAUCAAGUUCUCUAGGTT against Nical: the z-score was inactive: 0.865.

Consider CCUAUAUUGGAGAGAUAUUTT against Serpinb6a, for which the z-score is inactive: -0.341.

In the case of “CCAGAUGAAUGUAACACGCTT against D930038D03Rik”, the z-score is inactive: 0.712.

As for “GGGACACAACCACAAUAACTT against 1700017I11Rik”, the z-score is inactive: 0.406.

In the case of “GGGCAAGUAUACCUUCAAUTT against 1700010A17Rik”, the z-score is inactive: -0.321.

For the sequence GGAAGCAUCUGAUGUCAUUTT against Txndc4, the z-score is inactive: 0.117.
